We go through one molecule from patent US7183279B2, “Histogranin-like peptides and non-peptides, processes for their preparation and uses thereof” (University of Ottawa, priority 2006, dated 2007).

The subject of assay [1] is Swiss Webster mice. The assay is described as follows: Mouse writhing test (acetic acid-induced). The following applies: i.c.v. It is filed as in vivo. On the technique in general: In writhing tests, fewer writhes than in controls are read as antinociception.
Assay [2] deals with Swiss Webster mice. The assay is described as follows: Mouse tail flick assay (radiant heat). The following applies: i.c.v. It is filed as in vivo. The method, then: Mouse tail flick assay. […] Briefly, the latency to withdraw the tail from a focused light stimulus was determined using a photocell. […] Baseline latencies were determined before experimental treatment as the mean of two trials and a maximal latency of 12 s was used to minimize tissue damage. Post-treatment latencies were determined 5 min after i.c.v. injection. The antinociceptive effect was expressed as the percentage of the maximum possible effect, as calculated by the formula: % MPE=[(post-injection latency-baseline latency)/(cutoff latency-baseline latency)]×100. […] Group % MPE means were compared using one-way ANOVAs and P≦0.05 was considered significant.
(Thermal pain tests record how soon the animal reacts.)

For `CN1CC[C@]23c4c5ccc(O)c4O[C@H]2[C@@H](O)C=C[C@H]3[C@H]1C5` [Morphine, reference compound], the “Potency ratio relative to Histogranin (HN)” value with Swiss Webster mice [1] came to 34.8. For the same molecule, the “Potency ratio relative to [Ser1]HN” value in the assay on Swiss Webster mice [2] is given as 72.6.
